“Also recorded” adds a separate entry of the source. At least one peptide structure holds a part that was inferred or is arguable (an end, a ring closure or a residue). At least one compound was matched to its structure with a doubt left. Peptide text beside a SMILES is read from it. * marks the point of attachment. X1 = O=C(C[NH+]1CC[NH2+][Pt-2]1([Cl])[Cl])*
How the values were obtained:
Bax gene, tumour cells = assay: Bax gene expression in tumour cells (FIG. 2); format: cell-based
[1] = tested on: tumour cell lines (MCF7, M1735, MRC5 and A2780); assay: Immunocytochemistry with anti-leader peptide antibody on treated cell lines (FIG. 1); format: cell-based, human; settings: after three hours of incubation
Method: The target cells (MCF-7) in continuous culture, derived from a mammary tumour of human origin, were incubated for three hours in the presence or absence of: (a) 24-amino acid leader peptide of rMnSOD-Lp-CC not conjugated to any other molecules, (b) 24-amino acid leader peptide conjugated to cisplatin.
After incubation, the cells were fixed with Zamboni fixative (solution composed of 4% paraformaldehyde+15% picric acid) for 60 minutes and washed with PBS. The cells were then maintained in PBS containing 0.3% hydrogen peroxide, with the aim of blocking endogenous peroxidases. The polyclonal antibody (anti-leader peptide of rMnSOD obtained from rabbit), diluted 1/200 was then added to the cells and left for 1 hour at ambient temperature. To develop the reaction, a DAKO SLAB Peroxidase K0679 kit was used.

MCF-7 cells = assay: Quantitative determination by atomic absorption of cisplatin transported into tumour cells; format: cell-based, human
Method: The target cells MCF-7 were trypsinized, washed twice with buffered solution (PBS) and treated with 50 μl of 35% HNO3 for 16 hours. The platin content was determined by subjecting the samples to atomic absorption with an Analyst 800 instrument, by Perkin-Elmer, Norwalk, Conn., USA, using the following parameters: pre-treatment temperature, 1300° C.; atomization temperature, 2200° C.; using as the matrix modifier a composition of 0.015 mg of […] with 0.01 mg of Mg(NO3)2. The measurements were performed using the “Zeeman-effect background” correction system with Pyrolytic graphite-coated THGA tube (Perkin Elmer) and an integrated Lvov-type platform was used for metal determination. As standard solution we used a 2.5% HNO3 solution (Spectrascan) to obtain three reference points on the calibration curve.

SMILES: CSCC[C@H](NC(=O)C[NH+]1CC[NH2+][Pt-2]1([Cl])[Cl])C(=O)N[C@@H](CC(C)C)C(=O)N[C@@H](CO)C(=O)N[C@@H](CCCNC(=N)N)C(=O)N[C@@H](C)C(=O)N[C@H](C(=O)N[C@@H](CS)C(=O)NCC(=O)N[C@H](C(=O)N[C@@H](CO)C(=O)N[C@@H](CCCNC(=N)N)C(=O)N[C@@H](CCC(N)=O)C(=O)N[C@@H](CC(C)C)C(=O)N[C@@H](C)C(=O)N1CCC[C@H]1C(=O)N[C@@H](C)C(=O)N[C@@H](CC(C)C)C(=O)NCC(=O)N[C@@H](Cc1ccc(O)cc1)C(=O)N[C@@H](CC(C)C)C(=O)NCC(=O)N[C@@H](CO)C(=O)N[C@@H](CCCNC(=N)N)C(=O)N[C@@H](CCC(N)=O)C(=O)O)[C@@H](C)O)C(C)C (some centres unmarked) [rMnSOD-Lp-CC] (X1-MLSRAVCGTSRQLAPALGYLGSRQ-OH)
- Bax gene expression (apoptotic reaction) (Bax gene, tumour cells): active only in tumour cells; also recorded: strongly expressed
- apoptotic reaction [1]: strong apoptotic reaction
- quantity of Pt, MCF-7 Pellet (MCF-7 cells; MCF-7 Pellet): 4.6 ng Pt
- quantity of cisplatin, MCF-7 Solution (MCF-7 cells; MCF-7 Solution): Pep-CisPT 9.4 μg/l
- quantity of Pt, MCF-7 Solution (MCF-7 cells; MCF-7 Solution, value in brackets): (3.8 μg Pt)

— US8481481B2, “Peptides and their use as carriers into cancer cells” (Advanced Accelerator Applications S.A., priority 2008, dated 2013)
